Laboratory results: PMC8594432 (Dalton Transactions (Cambridge, England : 2003), 2021)
Strings that start with PEPTIDE1 are HELM notation: dots part the residues, brackets hold end groups and non-standard residues.

Test: peptide synthesis
Settings: conjugation step

Substance: PEPTIDE1{R.G.D.[dF].K}|CHEM1{[DP]}$PEPTIDE1,PEPTIDE1,1:R1-5:R2|PEPTIDE1,CHEM1,5:R3-1:R2$$$V2.0
- conjugation yield: 86%
- final HPLC purity (analytical HPLC, UV detection at 220 nm or 254 nm): ≥95%
